Source: patent US6479472B1, “Methods of using therapeutic phospholipid derivatives” (Asta Medica Aktiengesellschaft, priority 1993, dated 2002)
Where a name gives a salt, the structure may show the parent alone. Some of these results come from one statement about several compounds together. At least one compound was matched to its structure with a doubt left.

Tested on: DMBA-induced mammary carcinomas / KB implanted tumors
Assay: Summary statement on Experiments 1 and 2 (DMBA and KB tumor models, model not told per compound)
Assay type: in vivo, rats / mice
Conditions: specified dosage regimens; model not given; GII>100% = tumor regression
Description: The inventors induced mammary carcinomas in female Sprague-Dawley rats (Mollegaard Breeding Center, DK-4236 Ejby) aged 50 days by administering a single dose of 20 mg 7,12-dimethylbenz(a)anthracene (DMBA) dissolved in 1 ml of olive oil to each rat by gavage. The first tumor appeared approximately one month after feeding the subject rats with DMBA.
The inventors used female, nu/nu mice (strain NMRI) aged 9-10 weeks and weighing 21-29 g (Breeder: Bomholtgard Breeding and Research Center, DK-8680 Ry) for testing. Tumor fragments consisting of the human KB tumors (ATCC; Rockville, Md.; cell line ATCC CCL 17 KB, human epidermoid larynx tumors), and having an average diameter of 2 mm, were implanted subcutaneously into the right side of the test mice.
Results from Experiments 1 and 2 were calculated and expressed in accordance with the growth inhibition index (GII) described in Voegeli, et al., “Selective cytostatic activity of Hexadecylphosphocholine against tumor cells in vitro leads to the establishment of an in vivo screening system for phospholipid analogues,” Int. J. Oncol., 2:161 (1993). The GII values from Experiments 1 and 2 are detailed in Table 1 below.

SMILES	GII (growth inhibition index) [%]
CCCCCCCCCCCCCCCCCCOP(=O)([O-])OC1CC[N+](C)(C)CC1 [Example 1, 4-(((Octadecyloxy)hydroxyphosphenyl)oxy)-1,1-dimethylpiperidinium hydroxide internal salt]	> 100
CCCCCCCCCCCCCCCCOP(=O)([O-])OC1C[N+]2(C)CCC1CC2 (centres unmarked) [Example 22, Hexadecyl 1-methylquinuclidinio-3-yl phosphate]	> 100
